Data on two molecules can be found in paper PMC5599239.

In the assay the target is T1, Mrc1-Flag (S. cerevisiae) (UniProt P25588).
T1 sequence: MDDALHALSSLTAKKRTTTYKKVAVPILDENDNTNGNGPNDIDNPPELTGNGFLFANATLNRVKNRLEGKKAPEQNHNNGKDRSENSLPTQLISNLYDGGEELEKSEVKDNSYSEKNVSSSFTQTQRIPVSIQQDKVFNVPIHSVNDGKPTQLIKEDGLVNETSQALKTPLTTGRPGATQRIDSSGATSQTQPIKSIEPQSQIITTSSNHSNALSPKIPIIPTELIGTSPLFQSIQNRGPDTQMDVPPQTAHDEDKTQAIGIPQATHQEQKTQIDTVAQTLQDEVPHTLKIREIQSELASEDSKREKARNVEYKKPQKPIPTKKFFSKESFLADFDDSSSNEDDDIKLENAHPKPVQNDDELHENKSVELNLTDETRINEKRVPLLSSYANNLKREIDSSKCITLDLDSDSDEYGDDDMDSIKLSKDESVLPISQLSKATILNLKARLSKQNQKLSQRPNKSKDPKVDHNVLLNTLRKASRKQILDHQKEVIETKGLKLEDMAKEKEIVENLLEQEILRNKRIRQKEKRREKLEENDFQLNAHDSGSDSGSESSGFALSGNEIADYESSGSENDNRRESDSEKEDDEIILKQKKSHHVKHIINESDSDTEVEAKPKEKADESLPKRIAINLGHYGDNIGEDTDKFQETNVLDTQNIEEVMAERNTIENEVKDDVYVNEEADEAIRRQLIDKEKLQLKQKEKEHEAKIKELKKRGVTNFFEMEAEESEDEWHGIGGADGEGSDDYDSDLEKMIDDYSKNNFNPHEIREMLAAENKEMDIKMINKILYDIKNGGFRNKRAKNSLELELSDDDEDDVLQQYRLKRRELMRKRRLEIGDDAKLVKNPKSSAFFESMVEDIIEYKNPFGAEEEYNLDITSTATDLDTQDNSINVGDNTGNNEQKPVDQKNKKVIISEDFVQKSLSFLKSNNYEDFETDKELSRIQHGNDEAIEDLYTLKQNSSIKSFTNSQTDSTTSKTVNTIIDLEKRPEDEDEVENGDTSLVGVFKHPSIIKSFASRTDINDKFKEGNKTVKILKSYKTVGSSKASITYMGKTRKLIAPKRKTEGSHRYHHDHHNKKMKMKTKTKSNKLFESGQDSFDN
Kind of assay: co-purification of co-expressed subunits (anti-FLAG affinity, then Superose 12 gel filtration); Mrc1-Flag, Tof1 and His-Csm3 co-expressed in yeast; extract bound to anti-Flag M2 resin in 250 mM K glutamate, 50 mM HEPES pH 7.5, 1 mM EDTA; eluted with 3X FLAG peptide; Superose 12 in 2X PBS with 10% glycerol; fractions on SDS-PAGE. On the technique in general: In gel filtration, larger molecules generally elute earlier.

No constants are given. Whether binding was seen depends on the method and setting. Some binding calls cover weakened binding; strength is not graded here. Sequences can lack the tags named with a protein.

B1: Tof1 (protein, UniProt P53840 1-1238)
chain: MSADLQQGTTNAADFSLTVLRARIALLATAIGGPDYTSQIDPPPYKLGDDCLACLKDLKRWFKLVDDQQKRWDVAMAVAEYRILTDDLLPILIDWENKCSLAAKLAKNNPDHEEFRNKAYYDKIALNCLQLLVLMTWPLIVTEQSSSNQITLYGELKKHQLVYKKTILSMESGKVLRAAIRLALDVIKIDRLSRTPRDNMVLKLVLNFFRNVIAIEPGEFTINTKKSMPKKGITSIDTLPPNVSMDDISLNTVISSFHKNKVFGFLLTLTSSLSKEFDQDFINIPLLEIMFYFTKDVNQELLFPRQFETGTHSKVVNKNESSSANNIVTSAGFELSKLLQKEHQMRKNVIKHTSARHSRFGGLLSIQTPDKTRLTVSGSQALVDEKIALQKLDDSKKWNKRIIKKHQSVAAEGLPNSLLNSQTGKAIFFTESNGKHFKEFINNFIDSGFNILLHSVTNYFTTEQDRMVTLEQVEYLLFFAWFVKYQLLRSKIDNSADIKQVSEALKEVTFILVSSLLRSAYDLKNWTVTHAGMIAFNELLNLVSRTKAAQEEDSTDIEFIVSRLFSDERIQLLSNLPKIGSKYSLQFMKSCIELTHSVLKVLEQYSDDKTLVIEGKSRRQKKFNISEGDITKLIEEENVDRDEALDILTSSLRSIEVNFQKVQANYMTEPVIETYINFLERFRELEDDSIKKVFSFFHRVFVQAKEQALLFRFDLIILLREMLSPDGLDRMSRSRKYVSQFSDYFLARLKKRLKKSPAWFVGLLFPPLHNSEVGFYQRYGEYNVLNNESMYAAPASQFKPIPDEEALPPSILLDMKYGVLVSTLLDDGKTELLDQLLKHITHTLDIFKSWLTVNVNAGKETVNPPNEYFTLTGVLNNDPIFKDKDYRALLLLIGYSIPRKINEPCFLPGTVEVSDLTVSCELVKKYLSTPFETPNGLPSSSYLLRVRSEKDSFSHNEQDGWEGDDDYDYNDPYIVPDDQILSKSDAAYFKDLDNNASDKLKGTKFSKGIARSKKKDKRKRRKGEAKTNLPMFGDQDDERPQTVRERHGVFSKEFISDSEDDEDLMNPIFFENETYMRWLLDKNNGQLTEDRYIQFAKFAAERMNNGGVVTGDYTSLFGGSIPSIESIRATESSSFAPDKSLISLASHVASEMSIFDVNNNNNNQLSDDDVNSESRNSLGSSQPSNSQNMFQSEVYSRKESTKRSLEASAADESDEDEEAIRLFGKKSRVVLSQGDSDD
For the molecule B1, the binding result is reported as “binds”.

B2: His-Csm3 (protein, UniProt Q04659 1-317)
chain: MDQDFDSLLLGFNDSDSVQKDPTVPNGLDGSVVDPTIADPTAITARKRRPQVKLTAEKLLSDKGLPYVLKNAHKRIRISSKKNSYDNLSNIIQFYQLWAHELFPKAKFKDFMKICQTVGKTDPVLREYRVSLFRDEMGMSFDVGTRETGQDLERQSPMVEEHVTSAEERPIVADSFAQDKRNVNNVDYDNDEDDDIYHLSYRNRRGRVLDERGNNETVLNNVVPPKEDLDALLKTFRVQGPVGLEENEKKLLLGWLDAHRKMEKGSMTEEDVQLIQSLEEWEMNDIEGQHTHYDLLPGGDEFGVDQDELDAMKEMGF
Turning to B2, the binding entry was “binds”.
